The data set is described as follows: coloration of hair by the coupler in combination with oxidation dye precursors, oxidizing alkaline medium. Details: species or system human. Here is the method:
According to this process, the dyeing composition described above is mixed at the time of use with a sufficient quantity of an oxidizing solution, and the mixture obtained is then applied on the hair.
The oxidizing solution contains oxidizing agents such as hydrogen peroxide, urea peroxide or persalts such as ammonium persulphate. "20 volumes" hydrogen peroxide solution is preferably used.
The mixture obtained is applied on the hair; it is left in place for 10 to 40 minutes, preferably 15 to 30 minutes, after which the hair is rinsed, washed with shampoo, rinsed again and dried.

Regarding `COc1ccc(N)c(OC)c1N` [2,4-diamino-1,3-dimethoxybenzene], the “coloration imparted to hair” value is, setting by setting: (in combination with p-aminophenols) “red colorations”; (in combination with p-phenylenediamines) “strong blue colorations that are more or less rich in green or purple”.

(Values after US4865619A, “Use, as a coupler, of 2,4-diamino-1,3-dimethoxybenzene or one of its salts, in combination with oxidation dye precursors, for dyeing human hair, hair dyeing composition containing the said coupler and process for preparing the said coupler” (L'Oreal, priority 1987, dated 1989).)
